Test results from PubChem BioAssay AID540276 (National Center for Advancing Translational Sciences (NCATS), 2011).
Values joined by “and” are separate entries in the source; they are usually repeats but may differ in a detail not shown here. Equal entries are not always repeated. The campaign covered roughly 300,000 compounds. About 5,400 (1.8%) were called active. Inconclusive means that the source gave no clear call. Such entries were picked first, then a sample of the others. Calls come from the whole dose curve; tested in HEK293 cells. Where the call is inconclusive, the potency comes from a doubtful curve fit.

Experiment: qHTS for inhibitors of binding or entry into cells for Marburg Virus
Settings: Marburg virus pseudotyped entry inhibition, cell reporter; series mostly up to 37.8 µM
Potency is the fitted concentration of half-maximal effect.

Row | Compound | Potency
1 | CCOc1ccc(C2C(C#N)=C(N)N(c3sc4c(c3C#N)CCCC4)C3=C2C(=O)CCC3)cc1 (stereo not drawn) | inconclusive: 5.17 µM [inhibitor, partial curve, poor fit]
2 | Cc1c(-c2nc(N)nc(Nc3ccccc3)n2)oc2ccccc12 | inconclusive: 35.5 µM [inhibitor, single point]
3 | Cc1ccc(-c2csc(NC(=O)c3ccc(C)o3)n2)cc1 | inactive
4 | CCOC(=O)/C(=N\Nc1ccccc1Cl)N1CCN(Cc2ccccc2)CC1 | inactive
5 | COc1cccc(C(=O)Nc2cc(-c3ccccc3)no2)c1 | inconclusive: 1.26 µM [activator, partial curve, poor fit]
6 | Cc1ccc(C2=C(c3ccc([N+](=O)[O-])cc3)C(=O)OC2)cc1C | inconclusive: 35.5 µM [inhibitor, single point]
7 | CCCCNC(=O)CSc1nc2nc(C)c(Cc3ccccc3C)c(C)n2n1 | inactive
8 | CCC(C)C(=O)N1CCCC(c2nc(-c3cccs3)no2)C1 (stereo not drawn) | inactive
9 | COc1ccc2cc(CCNC(=O)c3ccc(S(=O)(=O)N4CCOCC4)cc3)c(=O)[nH]c2c1 | inactive
10 | CCOc1ccc(CCNC(=O)Cn2nnc(-c3ccccc3)n2)cc1OCC | inactive
11 | O=C(O)CCCN=CC1=C(O)CNC1=O | inconclusive: 10 µM [activator, partial curve]
12 | O=S(=O)(Cc1cc(-c2ccc(Cl)cc2)no1)c1ccccc1 | inactive
13 | CCOC(=O)/C(=N\Nc1ccc(OC)cc1)c1csc(Nc2ccccc2)n1 | inconclusive: 29.1 µM [inhibitor, single point]
14 | O=C(Nc1ccc(CN2CCOCC2)cc1)c1cc2ccccc2o1 | inconclusive: 29.1 µM [inhibitor, single point]
15 | O=C(Nc1ncccc1O)c1ccc2c(c1)OCCO2 | inconclusive: 11.2 µM [inhibitor, partial curve, poor fit]
16 | O=C(/C=C/c1ccccc1)NC(NC(=S)Nc1ccc(Cl)cc1)C(Cl)(Cl)Cl (stereo not drawn) | active: 4.61 µM
17 | Cc1cccc(OCCCCCn2ccnc2)c1C | inconclusive: 23.1 µM [inhibitor, single point]
18 | CC(=O)Nc1nnc(Cc2c[nH]c3ccccc23)s1 | inconclusive: 0.398 µM [inhibitor, partial curve, poor fit]
19 | O=C(Nc1ccc(-n2cnnn2)cc1)C1CCCN1C(=O)Nc1ccc(Br)cc1 (stereo not drawn) | inconclusive: 2.82 µM [inhibitor, partial curve, poor fit]
20 | CCOC(=O)C1CCCN(C(=O)/C=C/c2ccc(Cl)cc2)C1 (stereo not drawn) | inactive
21 | CCN(CC)CCCn1c2c(c(SCC(=O)N3CCCc4ccccc43)nc1=O)CCC2 | inconclusive: 0.316 µM [activator, single point]
22 | COc1ccccc1NC(=O)N1CCc2[nH]c3ccc(Cl)cc3c2C1 | inactive
23 | CC(C)(C)CC(C)(C)NCC(O)COCCOc1ccc(Br)cc1 (stereo not drawn) | active: 4.61 µM
24 | O=C(Cc1cccc2ccccc12)N/N=C/C=C/c1cccc([N+](=O)[O-])c1 | inconclusive: 35.5 µM [inhibitor, single point]
25 | Cc1ccc(-n2c(O)c(C=Nc3ccc4c(c3)OCO4)c3ccccc3c2=O)cc1C | inactive

Four entries already listed, ordered by length of the SMILES, rising:
Row | Compound | Potency
11 | O=C(O)CCCN=CC1=C(O)CNC1=O | inconclusive: 10 µM [activator, partial curve]
18 | CC(=O)Nc1nnc(Cc2c[nH]c3ccccc23)s1 | inconclusive: 0.398 µM [inhibitor, partial curve, poor fit]
22 | COc1ccccc1NC(=O)N1CCc2[nH]c3ccc(Cl)cc3c2C1 | inactive
13 | CCOC(=O)/C(=N\Nc1ccc(OC)cc1)c1csc(Nc2ccccc2)n1 | inconclusive: 29.1 µM [inhibitor, single point]

The list goes on.

Row | Compound | Potency
26 | OCCn1c(-c2ccccc2)csc1=Nc1ccccc1 | inconclusive: 12.6 µM [inhibitor, single point]
27 | COc1cccc2sc(N3CCN(C(=O)c4ccco4)CC3)nc12 | inactive
28 | CCOC(=O)N/N=C\c1ccc(-c2cc(Cl)ccc2Cl)o1 | inconclusive: 35.5 µM [inhibitor, single point]
29 | COc1ccc(CNCc2cccc(OC)c2OC)cc1Br | inconclusive: 16.4 µM [inhibitor, single point]
30 | CCCCc1ncc(CN2CCCC(C(=O)c3ccc(SC)cc3)C2)[nH]1 (stereo not drawn) | inactive
31 | COc1ccc(OC)c(NC(=O)Cn2cc(C=O)c3ccccc32)c1 | inconclusive: 2 µM [inhibitor, full curve, poor fit]
32 | CN(C(=O)COc1ncnc2ccccc12)C1CCCCC1 | inconclusive: 6.31 µM [activator, single point]
33 | CCOc1ccc(NC(=O)CN(C)C(=O)c2ccccc2SCC(=O)N2CCCC2)cc1OCC | inconclusive: 0.708 µM [activator, full curve, poor fit]
34 | CCOc1cc(S(=O)(=O)NCCCN2CCOCC2)c(C)cc1C | inconclusive: 0.794 µM [inhibitor, partial curve, poor fit]
35 | Cc1ccc(CN(C)c2nc(-c3cccnc3)nc3ccccc23)o1 | inactive
36 | CCOC(=O)c1ccc(NC(=O)N2CCN(C3CCCCC3)CC2)cc1 | inconclusive: 0.164 µM [inhibitor, full curve, poor fit]
37 | COc1ccccc1N1CCN(C(=O)CSc2nc3ccccc3nc2N2CCC(C)CC2)CC1 | inconclusive: 12.6 µM [inhibitor, partial curve]
38 | O=S(=O)(c1ccc(-c2cn3ccccc3n2)cc1)N1CCOCC1 | inactive
39 | Cc1cc(C)nc(SCC(=O)Nc2ncc3c(n2)CC(C)(C)CC3=O)n1 | inactive
40 | CCc1nc(Nc2ccc3nccnc3c2)c2oc3ccccc3c2n1 | inconclusive: 3.26 µM [inhibitor, full curve]
41 | CCN1C(=O)NC(c2cccc(C(F)(F)F)c2)C(C(=O)OC)=C1C (stereo not drawn) | inactive
42 | CCC(=O)N1c2ccc(S(=O)(=O)N3CCC(C)CC3)cc2CC1C (stereo not drawn) | inactive
43 | CC(C)OC(=O)[C@@H](CC(=O)O)NCc1ccccc1 | inactive
44 | CC(C)CC(=O)NC(=S)Nc1ccccc1C(F)(F)F | inactive
45 | COCCn1c(=O)[nH]c2cc(C(=O)NCCCN3CCN(c4ccc(F)cc4)CC3)ccc2c1=O | inactive
46 | CNC1(C)C2CCC(C2)C1(C)C (stereo not drawn) | inconclusive: 1.83 µM [activator, partial curve, poor fit] and inconclusive: 22.4 µM [activator, single point]
47 | CNC(=S)N/N=C/c1ccc(OCC(=O)Nc2c(C)cc(C)cc2C)c(OC)c1 | inactive
48 | Cc1nn(C)c(C)c1-c1c(C#N)c(N)nc2c1CCCCCC2 | inconclusive: 5.01 µM [inhibitor, partial curve, poor fit]
49 | CCN(CC)C(=O)c1ccc(NC(=S)NC(=O)CCc2ccccc2)cc1 | inconclusive: 35.5 µM [inhibitor, single point]
50 | CCC(=O)Nc1ccc(-c2nnc3c4ccccc4c(C)nn23)cc1 | inactive

Row | Compound | Potency
51 | COc1ccc2o/c(=N/NC(=O)c3cccs3)c(C(N)=O)cc2c1 | inconclusive: 35.5 µM [inhibitor, single point]
52 | COc1ccc(OCC(=O)Nc2ccc(S(=O)(=O)N3CCOCC3)cc2)cc1 | inconclusive: 35.5 µM [activator, single point]
53 | c1ccc(-n2nnnc2NCCc2c[nH]c3ccccc23)cc1 | inactive
54 | COc1ccccc1NS(=O)(=O)c1ccc(C)c(C(=O)N2CCN(c3ccc(O)cc3)CC2)c1 | inconclusive: 35.5 µM [inhibitor, single point]
55 | CCC(C)(C)NC(=O)C(c1cccn1C)N(C(=O)Cn1nnc2ccccc21)c1ccc(F)cc1 (stereo not drawn) | inactive
56 | CCOc1cc(/C=N/NC(=O)c2cccnc2)cc(Br)c1OCC(N)=O | inactive
57 | O=C(CCSc1nc(-c2ccco2)cc(C(F)(F)F)n1)N1CCN(c2ccccn2)CC1 | inconclusive: 22.4 µM [inhibitor, single point]
58 | Cc1ccc2c(c1)cc1c(=O)n(CC(=O)NC3CCCCC3)nc(C)n12 | inconclusive: 0.562 µM [inhibitor, partial curve, poor fit]
59 | Cn1c(N)c(C(=O)COc2ccc(Cl)cc2Cl)c(=O)n(C)c1=O | inconclusive: 28.2 µM [inhibitor, partial curve, poor fit]
60 | CCCOC1CCCN(C(=O)CCc2nnc(Cc3cccc(C)c3)o2)C1 (stereo not drawn) | inconclusive: 2.24 µM [activator, partial curve, poor fit]
61 | COC(=O)C(CCSC)NC(=O)c1cc2c(n(-c3ccc(C)cc3)c1=O)CC(C)(C)CC2=O (stereo not drawn) | inactive
62 | COCCOC1CCN(C(=O)C2CCC(=O)N(CCc3ccccc3)C2)CC1 (stereo not drawn) | inactive
63 | COc1ccc(C2=NN(C(=O)CN3CCCCC3)C(c3ccc(C)cc3)C2)cc1 (stereo not drawn) | inconclusive: 11.2 µM [inhibitor, partial curve, poor fit]
64 | CN1CCSc2ccc(C(=O)Nc3cccc(F)c3)cc21 | inconclusive: 11.2 µM [inhibitor, single point]
65 | S=c1[nH]nc(C2CCCCC2)n1Cc1ccccc1 | inactive
66 | Cc1nc(N2CCCCC2)c2c(C)c(C(=O)Nc3ccccc3C(F)(F)F)sc2n1 | inconclusive: 35.5 µM [inhibitor, partial curve, poor fit]
67 | Cc1ccc(CNC(=O)c2ccc3c(=O)n(-c4ccccc4)c(=O)[nH]c3c2)cc1 | inactive
68 | CCOc1cc(/C=N/Nc2nc(=O)[nH]nc2C)ccc1O | inactive
69 | O=C(Cn1cnc2c(nnn2Cc2ccc(F)cc2)c1=O)Nc1ccccc1 | inconclusive: 3.55 µM [inhibitor, single point]
70 | CC(=O)c1ccc(N2CCN(Cc3cc(=O)n4c(-c5ccccc5)csc4n3)CC2)cc1 | inactive
71 | Cc1nc2nc(SCC(=O)NCCc3ccc(Cl)cc3)nn2c(C)c1Cc1ccccc1 | inconclusive: 15.8 µM [inhibitor, single point]
72 | Cc1cc(C)c(S(=O)(=O)c2ccccc2F)c(=O)[nH]1 | inconclusive: 22.4 µM [activator, single point]
73 | CCCSc1ncc(Cl)c(C(=O)Nc2nc3ccc(OCC)cc3s2)n1 | inactive
